Results are given in words; binding and its absence hold for the method and conditions named.
Key:
[1] = biological target: progesterone receptor isoform A (PR-A), full-length, Strep II tagged (human) (UniProt P06401); assay: SEC-MALS; each protein alone, PR bound to agonist R5020, no DNA; Superose 6 Increase; 20 mM Hepes, 50 mM NaCl, 5% glycerol, 1 mM TCEP, with or without 1 M urea, pH 7.5; about 20-100 ug injected; both purified
[2] = biological target: progesterone receptor isoform A (PR-A), full-length, Strep II tagged (human) (UniProt P06401); assay: SEC-MALS; PR bound to antagonist RU486, no DNA; Superose 6 Increase; 20 mM Hepes, 50 mM NaCl, 5% glycerol, 1 mM TCEP, with or without 1 M urea, pH 7.5; both purified

Chains of the proteins cited; added tags and fusions are not shown. Lines headed by an entry give the natural chain unless they say otherwise; changes in a name come on top. Residues count along the entry.
UniProt P06401, residues 165-933: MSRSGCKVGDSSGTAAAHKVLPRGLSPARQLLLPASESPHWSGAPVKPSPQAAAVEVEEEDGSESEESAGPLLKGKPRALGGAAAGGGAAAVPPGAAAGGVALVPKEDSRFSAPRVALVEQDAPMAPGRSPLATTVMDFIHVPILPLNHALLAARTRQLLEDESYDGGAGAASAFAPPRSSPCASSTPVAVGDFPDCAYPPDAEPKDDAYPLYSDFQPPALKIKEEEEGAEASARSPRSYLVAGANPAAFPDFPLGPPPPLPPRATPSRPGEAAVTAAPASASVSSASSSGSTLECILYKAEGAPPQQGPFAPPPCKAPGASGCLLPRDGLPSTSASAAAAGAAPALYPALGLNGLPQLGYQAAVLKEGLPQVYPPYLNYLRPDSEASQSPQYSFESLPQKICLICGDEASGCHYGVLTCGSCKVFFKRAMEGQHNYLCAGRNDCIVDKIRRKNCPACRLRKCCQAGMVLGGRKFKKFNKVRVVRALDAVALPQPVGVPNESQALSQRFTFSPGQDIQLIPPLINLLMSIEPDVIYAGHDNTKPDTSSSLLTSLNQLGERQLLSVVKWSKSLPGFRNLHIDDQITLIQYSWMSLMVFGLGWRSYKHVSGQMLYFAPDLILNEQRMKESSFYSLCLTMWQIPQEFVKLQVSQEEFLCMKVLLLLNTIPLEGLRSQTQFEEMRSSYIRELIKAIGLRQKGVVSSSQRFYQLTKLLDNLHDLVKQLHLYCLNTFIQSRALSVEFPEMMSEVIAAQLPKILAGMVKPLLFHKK

progesterone receptor isoform A (PR-A), full-length, Strep II tagged (from UniProt P06401-2 1-769)
binding [1]: no binding (condition: in the absence of DNA) | binding [2]: no binding (condition: in the absence of DNA)

Source: article PMC11601812
